# Percent effect of library compounds

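Whole-parasite assay of Trypanosoma brucei over 72 hours; the read-out is not stated. Compounds at 30 µM. Higher reads as stronger inhibition (inferred: compounds with an IC50 in retests scored well above the rest). Values scatter widely below zero; nearly all retest evidence comes from the higher of the two concentrations used. About 64,000 compounds were tested under these conditions; 1.5% (about 940) showed 50% or more at least once.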

The filed quantity is “Percent Effect” (%). How 0% and 100% were set is not recorded. Most values in the screen are low, and negative values occur. Compounds were drawn at random from those tested, without regard to their results.

| structure | percent effect |
|---|---|
| `CC(C)n1c(=O)nc2n1C(=O)N(c1ccc(Br)cc1)C2` | -31.4% |
| `COc1ccc(F)cc1CSCC(=O)N(C)C1CC1` | -41.8% |
| `CCn1nc(C)c(CCNC(=O)c2cccc(NCC(=O)O)c2)c1C` | -17.85% |
| `CC(C)C(N)C1=N/C(=C2\N=CN=N2)NO1` (configuration not stated) | -2.65% |
| `N#CC1(c2ccccc2)CCN(C(=O)C2CCCN(CC(N)=O)C2)CC1` (configuration not stated) | -61.72% |
| `Cc1noc(C)c1-c1nc(C2CCCNC2)ccc1CO.Cl.Cl` (configuration not stated) | -26.46% |
| `CC(C)(C)C(=O)N1CCCN(c2ncnc3nc(N)ccc23)CC1` | 30.69% |
| `Cc1nc2c(s1)C(N(C)C(=O)NCCCC(C)(C)CO)CCC2` (configuration not stated) | -537.7% |
| `c1cc(CNc2nnc(Cc3ccsc3)o2)cs1` | -9.155% |
| `O=C(c1c(F)cc(Br)cc1F)N1CCc2cnccc21` | 6.211% |
| `Cc1noc([C@@H]2C[C@H](NC(=O)Nc3cccc(F)c3)CN2C)n1` | -53.65% |
| `COc1ccc(OCCNC(=O)CN(C)Cc2nnc(C)n2C)cc1` | -12.2% |
| `O=C(O)C(F)(F)F.[H][C@@]12C[C@H](C(=O)N3CCCO3)CN(Cc3ccco3)[C@]1([H])CCO2` | 5.895% |
| `O=C(O)[C@H]1OCC(=O)N(Cc2cccc(F)c2)[C@@H]1c1ccc(Cl)cc1` | -13.86% |
| `O=C(COc1coc(CN2CCCC2)cc1=O)Nc1ccc(Cl)c(Cl)c1` | -27.65% |
| `O=C(c1cccc(-n2cccn2)c1)N1CCCOC(CN2CCCC2)C1` (configuration not stated) | 5.536% |
| `COCC(=O)Nc1ccccc1-c1ccc(=O)n(C)n1` | 4.497% |
| `CCc1noc(C(C)N2CCC(NC(=O)c3ccc(C)s3)CC2)n1` (configuration not stated) | 18.02% |
| `CC(=O)c1cc(CC(=O)NCc2c(F)cccc2F)cs1` | 6.253% |
| `CCc1noc(C(C)N(C)CC(=O)Nc2ccc(Br)cc2C)n1` (configuration not stated) | -22.21% |
| `CN(C)c1ncc(-c2cc(C(=O)O)n(CC3CC3)c2)cn1` | 4.995% |
| `CC(Cn1cccn1)NC(=O)NCCc1cnn(C)c1` (configuration not stated) | -44.2% |
| `COc1cccc(CN2CC(O)CN(S(C)(=O)=O)CC2=O)c1OC` (configuration not stated) | -33.54% |
| `CN(Cc1ccco1)C1CCC12CCN(C(=O)c1ccco1)CC2.O=C(O)C(F)(F)F` (configuration not stated) | -14.84% |
| `CC(=O)N1CCC2(C1)c1ccccc1S(=O)(=O)N2C` (configuration not stated) | -45.55% |
| `O=C(O)C(F)(F)F.O=C(O)C(F)(F)F.[H][C@@]12C[C@@H](C(=O)NC)N(C(C)C)[C@]1([H])CN(c1ncccn1)C2` | -35.37% |
| `O=C(O)C(F)(F)F.O=C(O)C(F)(F)F.O=C(O)C(F)(F)F.[H][C@@]12CCCO[C@]1([H])[C@H](N(C)Cc1ccco1)CN(Cc1cccnc1)C2` | -2.087% |
| `O=C(NCC1(Sc2ccccc2)CC1)c1c[nH]nn1` | -22.41% |
| `CC(=O)N1CCCN(C(=O)NC(C)Cn2cccn2)CC1` (configuration not stated) | -18.65% |
| `COCc1cc(NCC(F)(F)F)n2nccc2n1` | -74.66% |
| `Cc1ccc(CNC(=O)NC2CCN(CC(F)F)CC2)cc1` | -0.6068% |
| `Cc1cccc(-c2noc(CN3CCOCC3C)n2)c1` (configuration not stated) | -12.41% |
| `CCc1nc(COc2ccc(N(C)C(C)=O)cc2)no1` | -73.86% |
| `O=C(O)C(F)(F)F.[H][C@@]12CCN(C3CCOCC3)C[C@]1([H])[C@H](C(=O)NC)CCO2` | -16.43% |
| `Cc1ccc(S(=O)(=O)N2CCC(Oc3ccccn3)CC2)c(C)c1` | 12.37% |
| `CN(C)c1ncnc2c1CCN(S(=O)(=O)c1cccc3nsnc13)C2` | -35.66% |
| `CS(=O)(=O)NCC1Cc2ccccc2O1` (configuration not stated) | -7.529% |
| `c1cc(CCNc2ccc(CC3CCNC3)cn2)ccn1` (configuration not stated) | 0.5545% |
| `COc1cc(CNC(=O)NCCCF)cc(Br)c1OC` | -15.09% |
| `O=C1CC(c2ccc(F)cc2)Cc2[nH]c(=O)c(C(=O)O)cc21` (configuration not stated) | -9.411% |
| `Cn1nc(CN2CCCN(C3CCCC3)CC2)c2c(Cl)cccc21` | 100.6% |
| `O=C(c1ccc(F)cc1F)N1CCN(C(=O)C2CCCCC2)CC1` | 5.662% |
| `CN(C)C1CCCN(C(=O)NCCC(=O)N2CCCCCC2)C1` (configuration not stated) | -6.388% |
| `Cc1cc(NC(=O)C2CCN(c3ncccc3C#N)CC2)no1` | -20.88% |
| `CC(C)n1cc(C(=O)NCC(CO)Cc2cccs2)cn1` (configuration not stated) | 16.04% |
| `Cc1cc(F)ccc1OC1(C(=O)O)CCN(Cc2cccnc2)CC1` | -70.82% |
| `O=C(O)C(F)(F)F.[H][C@@]12COC[C@]1([H])[C@H](OCc1csc(C)n1)CN2Cc1cnn(C)c1` | -56.08% |
| `CCc1ccc(CN2CCc3ncnc(N4CCOCC4)c3CC2)o1.O=C(O)C(F)(F)F` | -15.85% |
| `O=C(c1ccco1)N1CC[C@@H](N2CCOCC2)[C@@H]1Cc1ccccc1` | -26.07% |
| `CC(C)OCCN1CCc2cncnc2C1` | -9.392% |
| `O=C(O)C(F)(F)F.[H][C@@]12COC[C@]1(CNC(=O)c1ccccc1)CN(Cc1nccs1)C2` | 26.85% |
| `CCOc1ccc(N2CCCN=C2NC(=O)c2ccc(OC)cc2)cc1` | -20.63% |
| `Cc1ccc2c(c1)c(Sc1ccccc1)c(CC(=O)O)n2C` | -21.87% |
| `CCc1nc(C)c(C(=O)N2CCNCC2C(=O)NCc2ccncc2)o1` (configuration not stated) | -21.41% |
| `Cc1nc(C)n(CC2CCCN2CCCc2nc3ccccc3o2)n1` (configuration not stated) | -1.058% |
| `O=C(NCC1CCCO1)c1ccc(S(=O)(=O)NCCc2cn[nH]c2)cc1` (configuration not stated) | -8.526% |
| `CC(C)Oc1cccc(CN(C)C(=O)Cc2ccon2)c1` | -116.6% |
| `O=C(c1ccc[nH]1)N1CCc2c(cccc2S(=O)(=O)N2CCOCC2)C1` | 6.097% |

For reference, 4 entries once more:

structure	percent effect
CC(=O)N1CCC2(C1)c1ccccc1S(=O)(=O)N2C (configuration not stated)	-45.55%
CN(C)c1ncc(-c2cc(C(=O)O)n(CC3CC3)c2)cn1	4.995%
CCc1ccc(CN2CCc3ncnc(N4CCOCC4)c3CC2)o1.O=C(O)C(F)(F)F	-15.85%
Cc1cc(NC(=O)C2CCN(c3ncccc3C#N)CC2)no1	-20.88%

The values are deposited in ChEMBL (CHEMBL3988442, “University of Dundee, Small-Polar-MMV Screening Library” (2021)).